Reference: PubChem BioAssay AID1259331 (Drosophila RNAi Screening Center, 2017)
Purpose: 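Genes whose knock-down changes cell survival under toxic zinc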 (primary screen). Cell system: Drosophila S2R+ cells. Knock-down reagent: long dsRNA against Drosophila genes. Timing: 5 days (4 days knock-down, then 1 day zinc). Treatment: zinc chloride at 15 mM final level for 1 day. Measured: 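Total cellular ATP measured by luciferase luminescence as a viability proxy, turned into Z scores from three plate copies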. Direction: mean Z score: higher = more ATP than other wells, better survival under zinc; ATP luminescence: higher = more ATP, more viable cells. Active means: 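Hit when the absolute Z score is greater than 1.5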. Calls: active = hit, ATP up or down; inactive = not a hit.
Here is an unselected part of about 3,100 deposited reagents. 126 of them (4.1%) count as active. 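Calls are per reagent; zinc was so toxic that few knock-downs lowered ATP further, so most hits raise ATP.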 Raw values vary from plate to plate and are shown uncorrected. Unmarked entries are inactive. The numbers tell different reagents against one gene apart. No sequences are given here. The record does not give: the amount of reagent.

For CG3803, the entry reads mean Z score -0.0389; ATP luminescence, replicate 1 = 43777; ATP luminescence, replicate 2 = 39877. With knock-down of CG4822, the screen gave mean Z score 0.107; ATP luminescence, replicate 1 = 51132; ATP luminescence, replicate 2 = 64731. With knock-down of Cad87A #1, the record shows mean Z score 0.847; ATP luminescence, replicate 1 = 53584; ATP luminescence, replicate 2 = 56328. Against Cad87A #2 the deposit lists mean Z score -0.00768; ATP luminescence, replicate 1 = 59329; ATP luminescence, replicate 2 = 63256. Knock-down of CG5823 #1 resulted in: mean Z score -0.123; ATP luminescence, replicate 1 = 41496; ATP luminescence, replicate 2 = 47631. CG5823 #2 gave mean Z score 0.185; ATP luminescence, replicate 1 = 65828; ATP luminescence, replicate 2 = 63736.

An excerpt taken from the entries so far, for reference:
CG4822 → mean Z score: 0.107; ATP luminescence, replicate 1: 51132; ATP luminescence, replicate 2: 64731
Cad87A #1 → mean Z score: 0.847; ATP luminescence, replicate 1: 53584; ATP luminescence, replicate 2: 56328

Next entries:
CG32987 #1 gave mean Z score 0.344; ATP luminescence, replicate 1 = 64199; ATP luminescence, replicate 2 = 64422. After knock-down of CG32987 #2 the results were mean Z score -0.711; ATP luminescence, replicate 1 = 42714; ATP luminescence, replicate 2 = 58300. With knock-down of Osi6 #1 the results were mean Z score 1.26; ATP luminescence, replicate 1 = 1.01e5; ATP luminescence, replicate 2 = 79071. Silencing of Osi6 #2 resulted in: mean Z score 2.38 (active); ATP luminescence, replicate 1 = 94233; ATP luminescence, replicate 2 = 91351. For Irk3, the entry reads mean Z score 0.244; ATP luminescence, replicate 1 = 55316; ATP luminescence, replicate 2 = 42131. After knock-down of Ctr1A, the screen gave mean Z score 0.305; ATP luminescence, replicate 1 = 71042; ATP luminescence, replicate 2 = 71179.
